The chains behind the UniProt entries cited, without tags or fusion partners. Where a name states a change or a piece, a line headed by the entry shows the natural chain unless it says otherwise.
UniProt O00329: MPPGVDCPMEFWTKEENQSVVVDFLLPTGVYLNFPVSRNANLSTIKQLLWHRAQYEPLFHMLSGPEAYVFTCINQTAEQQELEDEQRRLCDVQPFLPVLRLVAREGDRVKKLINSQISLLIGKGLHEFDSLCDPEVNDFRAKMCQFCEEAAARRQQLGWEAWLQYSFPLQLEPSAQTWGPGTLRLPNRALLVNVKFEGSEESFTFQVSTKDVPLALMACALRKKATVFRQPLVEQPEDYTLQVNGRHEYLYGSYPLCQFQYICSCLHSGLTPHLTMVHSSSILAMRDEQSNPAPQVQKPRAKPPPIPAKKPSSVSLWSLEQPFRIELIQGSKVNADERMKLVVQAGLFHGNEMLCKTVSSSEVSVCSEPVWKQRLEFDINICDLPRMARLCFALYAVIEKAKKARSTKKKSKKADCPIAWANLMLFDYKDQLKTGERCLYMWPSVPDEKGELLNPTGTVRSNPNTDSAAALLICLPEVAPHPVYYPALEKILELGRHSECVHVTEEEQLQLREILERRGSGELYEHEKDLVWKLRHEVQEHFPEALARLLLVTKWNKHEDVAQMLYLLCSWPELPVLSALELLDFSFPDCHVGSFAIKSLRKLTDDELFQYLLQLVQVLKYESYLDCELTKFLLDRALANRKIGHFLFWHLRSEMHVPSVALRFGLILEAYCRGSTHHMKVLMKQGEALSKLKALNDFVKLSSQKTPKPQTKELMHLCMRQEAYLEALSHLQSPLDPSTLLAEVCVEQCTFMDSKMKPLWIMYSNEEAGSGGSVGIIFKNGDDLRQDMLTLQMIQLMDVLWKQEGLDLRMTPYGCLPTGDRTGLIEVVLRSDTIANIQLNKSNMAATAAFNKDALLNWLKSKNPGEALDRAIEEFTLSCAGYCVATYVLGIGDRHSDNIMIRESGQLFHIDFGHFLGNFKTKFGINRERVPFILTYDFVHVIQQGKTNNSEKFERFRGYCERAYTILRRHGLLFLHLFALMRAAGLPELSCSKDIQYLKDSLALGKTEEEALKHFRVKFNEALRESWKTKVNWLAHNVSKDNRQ

In US8791107B2, “N-substituted oxazinopteridines and oxazinopteridinones” (Takeda Pharmaceutical Company Limited, priority 2011, dated 2014):

Molecular target: T1, PI3Kδ (Homo sapiens, UniProt O00329)
T1 construct: The protein is full length and co-expressed with untagged PIK3R1; GST; purchased Invitrogen PV5274
Test: PI3Kδ inhibition, modified PIK3CD Adapta TR-FRET assay
Type: biochemical
Details: recombinant GST-tagged full length PIK3CD co-expressed with PIK3R1 (p85α); 2 μM ATP, 50 μM PIP2; read-out: PI3Kδ Inhibition (pIC50) (converted)
Method: The activity of compounds as PI3Kδ inhibitors may be determined by a variety of methods, including in vitro and in vivo methods. The following in vitro assay measures a test compound's ability to inhibit PI3Kδ-mediated phosphorylation of PIP2 and ATP.
Recombinant GST-tagged PIK3CD is purchased from Invitrogen (Part Number: PV5274). The protein is full length and co-expressed with untagged PIK3R1, phosphoinositide-3-kinase regulatory subunit 1 (p85α). The protein is stored at −20° C. in 50 mM TRIS (pH 7.5), 150 mM NaCl, 0.5 mM EDTA, 0.02% Triton® X-100, 2 mM DTT, and 50% glycerol.
A modified PIK3CD Adapta® assay (Invitrogen, Carlsbad, Calif.) is used to measure PI3Kδ inhibition of the example compounds. The assay has two phases. In the first phase, kinase reaction components, which include the enzyme (PIK3CD), substrates (PIP2, ATP), test compound (inhibitor), and assay buffer are added to each well, and the reaction is allowed to incubate for a pre-determined period of time. […] In the presence of the inhibitor, the amount of ADP formed by the kinase reaction is reduced, and the resulting intact antibody-tracer interaction maintains a high TR-FRET signal.
The reaction buffer contains 50 mM Hepes (pH 7.5), 3 mM MgCl2, 1 mM EGTA, 100 mM NaCl, 0.03% CHAPS; 2 mM DTT is added fresh prior to each experiment. […]

Work on `N#Cc1cccc(CN2CC3COCCN3c3nc(-c4cccc5[nH]ccc45)ncc32)c1` (stereo not shown) [Example 59, 3-((2-(1H-indol-4-yl)-6a,7,9,10-tetrahydro-[1,4]oxazino[3,4-h]pteridin-5(6H)-yl)methyl)benzonitrile] yielded an IC50 of 63.1 nM.
